According to article PMC9829178:
These are yes or no findings as the source states them, for the method shown. For part of these data: In cells and extracts the contact can be indirect. Some results given as binding are weak or reduced against the parent protein; the word gives no strength. For part of these data: Tags and fused reporters may be left off the sequences shown.

Columns and labels:
[1] = target: T1, FBXL21 (yeast two-hybrid fusion) (UniProt Q8BFZ4); experiment: two-hybrid; yeast two-hybrid (Gal4 system) screen and test; which protein was bait is not stated
T1 sequence: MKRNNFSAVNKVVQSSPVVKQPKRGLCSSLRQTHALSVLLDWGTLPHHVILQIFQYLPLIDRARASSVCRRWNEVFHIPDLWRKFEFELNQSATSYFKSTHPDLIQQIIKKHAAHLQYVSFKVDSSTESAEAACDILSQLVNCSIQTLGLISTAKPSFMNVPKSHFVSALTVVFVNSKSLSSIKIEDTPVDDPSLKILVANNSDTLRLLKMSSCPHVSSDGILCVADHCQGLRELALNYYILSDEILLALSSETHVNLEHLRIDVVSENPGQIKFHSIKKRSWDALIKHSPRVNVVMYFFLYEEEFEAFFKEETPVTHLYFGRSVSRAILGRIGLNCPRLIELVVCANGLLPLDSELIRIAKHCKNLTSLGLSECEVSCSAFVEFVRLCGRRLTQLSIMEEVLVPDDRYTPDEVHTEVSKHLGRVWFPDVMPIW

Flag-FBXL21 = target: T2, Flag-FBXL21 (UniProt Q8BFZ4); experiment: co-IP; HEK 293T cells co-transfected with Flag- and HA-tagged constructs; immunoprecipitation with anti-FLAG (M2) agarose beads; immunoblot with Flag-HRP and HA antibodies
T2 sequence: T1 sequence

[2] = target: T3, FBXL21 (endogenous, mouse gastrocnemius) (mouse (endogenous in gastrocnemius of C57BL/6J mice)) (UniProt Q8BFZ4); experiment: co-IP; gastrocnemius tissue of WT C57BL/6J mice collected at ZT0 and ZT12; immunoprecipitation with FBXL21 antibody; endogenous proteins
T3 sequence: T1 sequence

B1: Myozenin1 (MYOZ1) (yeast two-hybrid fusion) (protein, UniProt Q9JK37 1-296)
chain: MPLSGTPAPNKRRKSSKLIMELTGGGRESSGLNLGKKISVPRDVMLEELSLLTNRGSKMFKLRQMRVEKFIYENHPDVFSDSSMDHFQKFLPTVGGQLETAGQGFSYGKGSSGGQAGSSGSAGQYGSDRHQQGSGFGAGGSGGPGGQAGGGGAPGTVGLGEPGSGDQAGGDGKHVTVFKTYISPWDRAMGVDPQQKVELGIDLLAYGAKAELPKYKSFNRTAMPYGGYEKASKRMTFQMPKFDLGPLLSEPLVLYNQNLSNRPSFNRTPIPWLSSGEHVDYNVDVGIPLDGETEEL
Question: With B1 as the binder, how does the binding [1] read?
Answer: binds

B2: HA-MYOZ1 (protein, UniProt Q9JK37 1-296)
chain: B1 chain
Question: How did the binding (Flag-FBXL21) turn out when B2 was run?
Answer: binds

B3: MYOZ1 (endogenous, mouse gastrocnemius) (protein, UniProt Q9JK37 1-296)
chain: B1 chain
Question: Which binding [2] does the source give for B3 here?
Answer: binds
